Laboratory results reported in PMC2686732, “Both Ca^2+ and Zn^2+ are essential for S100A12 protein oligomerization and function” (BMC Biochemistry, 2009).
These are yes or no findings as the source states them, for the method shown. Some entries that bind do so weakly or less than the wild type.

Legend:
[1] = target: Recombinant full-length human S100A12 (human) (UniProt P80511); experiment: dynamic light scattering; data not shown; apo-, Ca2+- and Zn2+,Ca2+-S100A12; both purified
[2] = target: Recombinant full-length human S100A12 (human) (UniProt P80511); experiment: pulsed field gradient NMR (translational diffusion); apo-, Ca2+- and Zn2+,Ca2+-S100A12, 0.3-0.5 mM, 10 mM Hepes/NaOH pH 6.5, 100 mM NaCl, 25 C; both purified
[3] = target: Recombinant full-length human S100A12 (human) (UniProt P80511); experiment: NMR titration; 1H{15N}-HSQC of [U-15N] Ca2+-S100A12 (0.5 mM) titrated with ZnCl2; 10 mM Hepes/NaOH pH 6.5, 100 mM NaCl, 25 C; read-out is line broadening; both purified

Measured: binding

B1: Recombinant full-length human S100A12 (natural protein, UniProt P80511 1-92, looked up)
chain: MTKLEEHLEGIVNIFHQYSVRKGHFDTLSKGELKQLLTKELANTIKNIKDKAVIDEIFQGLDANQDEQVDFQEFISLVAIALKAAHYHTHKE
notes: S100A12, human, full length; expressed from a modified pQE60 vector with a stop codon inserted so that the protein has no histidine tag; Oligomeric state (dimer, tetramer, hexamer) depends on Ca2+ and Zn2+ in the sample; [U-15N] labelled for the NMR experiments; also called apo-S100A12; Ca2+-S100A12; source: E. coli, purified (Phenyl-Sepharose, ResQ ion exchange)
binds: [1] | [2] | [3]
